Laboratory results published in PMC7409263.
Results are given in words; binding and its absence hold for the method and conditions named. In cells and extracts the contact can be indirect. For part of these data: A result given as binding can be weak or reduced; the word gives no strength. For part of these data: Where a sequence is shown, tags or fusion partners need not be part of it.

The chains behind the UniProt entries cited, without tags or fusion partners. Where a name states a change or a piece, a line headed by the entry shows the natural chain unless it says otherwise.
UniProt Q6GQA4: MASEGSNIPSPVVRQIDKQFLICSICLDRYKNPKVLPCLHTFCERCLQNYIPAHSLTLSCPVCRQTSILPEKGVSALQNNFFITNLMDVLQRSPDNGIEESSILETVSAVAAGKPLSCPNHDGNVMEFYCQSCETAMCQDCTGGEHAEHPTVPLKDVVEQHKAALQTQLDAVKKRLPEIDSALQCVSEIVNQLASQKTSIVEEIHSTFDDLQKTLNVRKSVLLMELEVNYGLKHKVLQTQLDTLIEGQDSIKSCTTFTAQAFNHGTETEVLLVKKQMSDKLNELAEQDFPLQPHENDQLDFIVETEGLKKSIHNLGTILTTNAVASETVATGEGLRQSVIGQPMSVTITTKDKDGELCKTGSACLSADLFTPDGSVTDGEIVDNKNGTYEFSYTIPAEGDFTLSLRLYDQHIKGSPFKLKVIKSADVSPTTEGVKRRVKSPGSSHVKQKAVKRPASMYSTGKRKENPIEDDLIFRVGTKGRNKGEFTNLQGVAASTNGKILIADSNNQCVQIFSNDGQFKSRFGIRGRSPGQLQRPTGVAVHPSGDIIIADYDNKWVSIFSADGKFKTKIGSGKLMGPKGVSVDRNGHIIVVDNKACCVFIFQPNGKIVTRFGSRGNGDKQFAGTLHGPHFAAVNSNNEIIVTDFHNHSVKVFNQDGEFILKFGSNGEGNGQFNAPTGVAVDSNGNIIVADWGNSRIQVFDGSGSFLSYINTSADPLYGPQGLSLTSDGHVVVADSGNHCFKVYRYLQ

Assays:
[1] = target: GST-Trim2 (Xenopus tripartite motif containing 2) (Xenopus laevis) (UniProt Q6GQA4); experiment: pull-down; 50 ug GST-Trim2 added to 1 mL (1 mg protein) lysate of HEK293T cells transfected with Flag-Alix, 1 h at 4 C, GSH-Sepharose beads, washed with IP lysis buffer, Western blot; GST alone as control; only the target purified
[2] = target: GST-Trim2 (Xenopus tripartite motif containing 2) (Xenopus laevis) (UniProt Q6GQA4); experiment: pull-down; GST-Trim2 as bait on Xenopus embryonic lysates, tested for NEFL; detection not stated; only the target purified
[3] = target: GST-Trim2 (Xenopus tripartite motif containing 2) (Xenopus laevis) (UniProt Q6GQA4); experiment: pull-down; GST-Trim2 as bait on HEK293T cells (lysate), tested for NEFL; detection not stated; only the target purified

B1: Flag-Alix (protein, UniProt Q9W6C5-1 1-867)
chain: MATFISVPLKKTSEVDLVKPLSKYIHNTYPSGEDQTEYCRAVDELNKLRKSAVGRPLDKHETSLETVMRYYDQLCSVEPKFPFTESQLCLTFTWKDAFDKGSIFGGSVKLALPSLGYEKTCVLFNIGALASQIASEQNLDNDEALKAASKFYQLASGAFSHIKDTVLSSLNRDPTVDISPDTVGTLSLIMLAQAQEVFFLKATRDKMKDAVIAKLANQAADYYGDAFKQCQYKDTLSKEVFPILAAKHCIMQAHAEYHQSVLAKQQKKFGEEIGRLQHASDLVKTVSSRYDEYVNVKDLADKINRALTAAKKDNDFIYHDRVPDLKDLDPVGKASLVKSTPVNVPLSQKYTDLFEKMVPLAVQQCLSVYNQRKSELINSTIAQMRDATIFANGVLASLNLPAAVEDVSGDSIPQSILNKSKTVIEQGGIQTIGQLIRDLPELLQRNKEILEESLKFLDEEEATDNDLKAKFKDRWQRTPSTELYKPLRSEGSNFRNVLDKAIGADAVVKERYQSHREAIVILCKPEAELNAAIPSANPAKTMQGSEVVTVLKSLLNKLDDMKKEREQLENDIKSVNFDMTTKFLTALAQDGAVNEEAISVTELDQIYGSYTYKVQENLKKQEDLLNNIQSAHQEFSKMKQSNSEANLREEVLKNLAVGHDNYIELVANLKEGTKFYNDLTDILLKFQCKCSDIVFARKTERDELLKDIQQSIAREPSAPSIPQVPSYQSAPSSISTNIATSSIPTPAPRTVFSAKQPPPRPPPPAMPSASPVPASAAQASNPAPTAAADSSQPPSNTIPSQAQGPPYPSYPGYPGYYGMPMPVGYNPYMYGQQTIPPYMYQPPSGQPPYPAQQPSFSYPQQPFFPPQ
binding [1]: binds

B2: NEFL (Neurofilament Light), in Xenopus embryonic lysates (protein, UniProt P35616 1-544)
chain: MSSYSYDPYYTPYKRRVVESSPRVHIRSSYVSPSRTTYSPLVSTTMRRSYATSSSSSFLPSVDTMDLSQVAAISSDLKIVRTQEKVQLQDLNDRFANFIERVHELEQRNKVLEAELLLLRQKHNEPSRLRDMYEKEVRDVRLAQEEASGDRQTLRNERERLEDALRVLQGRYEEEAMSREDSEARLLDVRKEADMAALARVELEKRMDSLLDEIAFLKKVHEEELSQLQSQVQYAQVSLEVEVAKPDLSSALRDIRGQYEKLAAKNMQSAEEWFKSRFTVLTQSAARNTDAVRAAKDEMSESRRMLSAKGLEIEACRGVNEALQRQIQELEDKQSGEIAGMQDAINKLEEELRNTKSEMARYLKEYQDLLNVKMALDIEIAAYRKLLEGEETRLSFSGVGAITSGYTQSAPVFGRSAYSLQSSSYMTSRAFPTYYSSHVQEEQLDIEETIESSRAEEAKAEAPEEEEEEAAEEEGEGGEEAEEEGEEGEEAKEEEAEEEGGQEKEEEGEEGEGEAEAEGDGEEEGESKGDEAAEEESEKKEKKK
binding [2]: no binding

B3: NEFL (Neurofilament Light), from HEK293T cells (protein, UniProt P07196 1-543)
chain: MSSFSYEPYYSTSYKRRYVETPRVHISSVRSGYSTARSAYSSYSAPVSSSLSVRRSYSSSSGSLMPSLENLDLSQVAAISNDLKSIRTQEKAQLQDLNDRFASFIERVHELEQQNKVLEAELLVLRQKHSEPSRFRALYEQEIRDLRLAAEDATNEKQALQGEREGLEETLRNLQARYEEEVLSREDAEGRLMEARKGADEAALARAELEKRIDSLMDEISFLKKVHEEEIAELQAQIQYAQISVEMDVTKPDLSAALKDIRAQYEKLAAKNMQNAEEWFKSRFTVLTESAAKNTDAVRAAKDEVSESRRLLKAKTLEIEACRGMNEALEKQLQELEDKQNADISAMQDTINKLENELRTTKSEMARYLKEYQDLLNVKMALDIEIAAYRKLLEGEETRLSFTSVGSITSGYSQSSQVFGRSAYGGLQTSSYLMSTRSFPSYYTSHVQEEQIEVEETIEAAKAEEAKDEPPSEGEAEEEEKDKEEAEEEEAAEEEEAAKEESEEAKEEEEGGEGEEGEETKEAEEEEKKVEGAGEEQAAKKKD
binding [3]: no binding
